The source of these data is the supplement of paper PMC4604168 (melanoma cell lines).

The other results are listed elsewhere or left out. Repeats are few or missing, and single values can be far off.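 Imaging used 1,536-well plates; nuclei positive for cleaved PARP by antibody were divided by total DNA-stained nuclei to yield the apoptosis fraction. Doses for screening kept most cells viable, and cell lines differ markedly in resting and induced cleaved-PARP levels.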

The test system of this assay is WM3526. Description: cleaved PARP positive nuclei fraction relative to DMSO control; melanoma cells; higher = more apoptosis. The following applies: library dose: low library concentration; 72 h.
`C=C(c1ccc(C(=O)O)cc1)c1cc2c(cc1C)C(C)(C)CCC2(C)C` [Bexarotene] + CC(C)(C)c1cnc(CSc2cnc(NC(=O)C3CCNCC3)s2)o1 [SNS-032] (first compound 2 µM, partner dose 0.01 µM): the “cleaved PARP positive nuclei fraction” value was 121%. The result for `Cc1cc(Nc2cc(N3CCN(C)CC3)nc(/C=C/c3ccccc3)n2)n[nH]1` + COc1cc(N2CCC(N3CCN(C)CC3)CC2)ccc1Nc1ncc(Cl)c(Nc2ccccc2S(=O)(=O)C(C)C)n1 [NVP-TAE684] (first compound 0.04 µM, partner dose 0.08 µM) reads 108%; that for `O=C(O)c1ccc2c(c1)nc(Nc1cccc(Cl)c1)c1ccncc12` + Oc1nc(-c2ccc(C(F)(F)F)cc2)nc2c1CSCC2 [XAV939] (first compound 0.4 µM, partner dose 2 µM), 92.2%; that for `Nc1ccn([C@@H]2O[C@H](CO)[C@@H](O)C2(F)F)c(=O)n1` [gemcitabine] + COC(=O)c1sccc1S(=O)(=O)Nc1ccc(Nc2ccccc2)cc1OC [GSK0660] (first compound 0.0004 µM, partner dose 1 µM), 40.2%. The figure for `CNC(=O)c1cc(Oc2ccc(NC(=O)Nc3ccc(Cl)c(C(F)(F)F)c3)cc2)ccn1` [sorafenib] + CC(C)(C)c1cnc(CSc2cnc(NC(=O)C3CCNCC3)s2)o1 [SNS-032] (first compound 0.4 µM, partner dose 0.01 µM) is 120%. As to `Nc1ccn([C@@H]2O[C@H](CO)[C@@H](O)C2(F)F)c(=O)n1` [gemcitabine] + OCCn1cc(-c2cnc3nnn(Cc4ccc5ncccc5c4)c3n2)cn1 [PF04217903] (first compound 0.0004 µM, partner dose 1 µM), the “cleaved PARP positive nuclei fraction” value worked out at 69.9%.
